Measurements taken from patent publication US20260108572A1, “ALZHEIMER-TYPE DEMENTIA SUPPRESSANT, AND METHOD FOR PRODUCING SAME” (Sakamoto Yakusouen, LLC, priority 2022, published 2026).

System: senescence-accelerated model mouse SAM-P8
Assay: Genome expression (RNA sequencing, PCA) in the whole brain of senescence-accelerated model mice after oral administration
Format: in vivo
Details: oral 7 days: donepezil 5 mg/kg, acteoside 100 mg/kg, SSa extract powder 500 mg/kg, brain after 30 days

COc1cc2c(cc1OC)C(=O)C(CC1CCN(Cc3ccccc3)CC1)C2 (stereo not shown) [donepezil]
Difference of expression pattern from the control group on PC1 axis (PCA, gene and exon level): not a large difference
